{
  "source": "patent US20060052297A1",
  "about": "“Method of up-regulating tumor antigen expression using thymalfasin” (priority 2002, published 2006)",
  "key": {"[1]": {"tested_on": "TLP antigen expression in WiDr, IA-XsSBR and DHD-K12 colorectal cancer cell lines", "assay": "TLP antigen expression in colorectal cancer cell lines by flow cytometry and confocal laser scanning microscopy", "type": "cell-based, human, rat"}, "[2]": {"tested_on": "TLP expression on colorectal cancer cell line WiDr", "assay": "TLP expression on the cell surface of WiDr cells (FIG. 2)", "type": "cell-based, human"}, "[3]": {"tested_on": "TLP expression on DHD-K12 tumor cells from ascites or tumor mass", "assay": "TLP expression on tumor cells from BD-IX rats injected i.p. with DHD-K12 cells", "type": "in vivo, rat", "conditions": "thymalfasin i.p. or s.c."}, "MHC Class I expression": {"tested_on": "MHC Class I expression", "conditions": "Giuliani, 2000; cited from earlier work"}},
  "note": "Entries after “also recorded” stand apart in the source; their conditions may differ. At least one peptide structure holds a part that was inferred or is arguable (an end, a ring closure or a residue).",
  "data": [
    {"substance": "Ac-SDAAVDTSSEITTKDLKEKKEVVEEAEN-OH [thymalfasin]", "values": [
      {"measurement": "TLP antigen expression", "setting": "[1]; all 3 colorectal cell lines, thymalfasin 5-100 μg/ml, 6 to 48 hours", "result": "enhance the expression of this antigen in all cell lines tested"},
      {"measurement": "TLP expression level reached (% of cells)", "setting": "[1]; varies with dosage and timing, untreated 30-55% of cells cytoplasm, 10-20% cell membrane", "result": "≤ 90 % of cells"},
      {"measurement": "TLP expression on the cell surface", "setting": "[2]", "result": "increased"},
      {"measurement": "TLP expression on tumor cells from treated animals", "setting": "[3]", "result": "increased; also recorded: enhancement of expression of TLP similar to that seen in vitro"},
      {"measurement": "MHC Class I expression", "setting": "MHC Class I expression", "result": "up-regulate MHC Class I expression"}
    ]}
  ]
}
